Where a name gives a salt, the structure may show the parent alone. The list shows a part of the results. The calls rarely recur for the same compound in another form.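 Kinases, fused to nanoluciferase, were expressed in K562 cells; luminescence was measured every 4 h from 2 to 18 h as percent of control (DMSO = 100%, positive control = 0%). A time point is decreased if signal falls significantly (2 sigma). Hits were called by the authors by a rule that is not shown; the count of time points alone does not decide it.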
Key:
Test in all cases: kinase-Nluc reporter destabilization hit call (1 = scored as downregulated) (binary); higher = compound decreases kinase abundance
Conditions in all cases: K562; 2-18 h
[1] = target: CDK7 (UniProt P50613)
[2] = target: CDK9 (UniProt P50750)
[3] = target: CHEK2 (UniProt O96017)
[4] = target: CSF1R (UniProt P07333)
[5] = target: CSK (UniProt P41240)
[6] = target: CSNK1A1 (UniProt P48729)
[7] = target: CSNK1D (UniProt P48730)
[8] = target: DDR1 (UniProt Q08345)
[9] = target: DYRK1B (UniProt Q9Y463)
[10] = target: DYRK2 (UniProt Q92630)
[11] = target: EGFR (UniProt P00533)
[12] = target: EGFR_G719S (UniProt P00533)
[13] = target: EGFR_G719S_T790M (UniProt P00533)
[14] = target: EGFR_L718V (UniProt P00533)
[15] = target: EGFR_L858R (UniProt P00533)
[16] = target: EGFR_L861Q (UniProt P00533)
[17] = target: EGFR_T790M (UniProt P00533)
[18] = target: EPHA2 (UniProt P29317)
[19] = target: ERBB3 (UniProt P21860)
[20] = target: ERBB4_R711C (clone: ERBB4_mut) (UniProt Q15303)

The chains behind the UniProt entries cited, without tags or fusion partners. Where a name states a change or a piece, a line headed by the entry shows the natural chain unless it says otherwise.
UniProt P50750, whole entry: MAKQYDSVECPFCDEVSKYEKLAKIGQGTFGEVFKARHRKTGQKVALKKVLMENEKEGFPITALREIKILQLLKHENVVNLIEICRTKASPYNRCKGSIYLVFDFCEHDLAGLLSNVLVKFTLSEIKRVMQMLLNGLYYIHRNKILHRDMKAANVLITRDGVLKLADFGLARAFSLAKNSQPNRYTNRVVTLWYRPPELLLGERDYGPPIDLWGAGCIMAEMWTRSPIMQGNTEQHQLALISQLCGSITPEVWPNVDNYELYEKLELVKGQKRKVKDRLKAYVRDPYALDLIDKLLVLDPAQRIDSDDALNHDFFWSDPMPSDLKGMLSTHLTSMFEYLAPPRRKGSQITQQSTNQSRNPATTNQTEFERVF
UniProt O96017, whole entry: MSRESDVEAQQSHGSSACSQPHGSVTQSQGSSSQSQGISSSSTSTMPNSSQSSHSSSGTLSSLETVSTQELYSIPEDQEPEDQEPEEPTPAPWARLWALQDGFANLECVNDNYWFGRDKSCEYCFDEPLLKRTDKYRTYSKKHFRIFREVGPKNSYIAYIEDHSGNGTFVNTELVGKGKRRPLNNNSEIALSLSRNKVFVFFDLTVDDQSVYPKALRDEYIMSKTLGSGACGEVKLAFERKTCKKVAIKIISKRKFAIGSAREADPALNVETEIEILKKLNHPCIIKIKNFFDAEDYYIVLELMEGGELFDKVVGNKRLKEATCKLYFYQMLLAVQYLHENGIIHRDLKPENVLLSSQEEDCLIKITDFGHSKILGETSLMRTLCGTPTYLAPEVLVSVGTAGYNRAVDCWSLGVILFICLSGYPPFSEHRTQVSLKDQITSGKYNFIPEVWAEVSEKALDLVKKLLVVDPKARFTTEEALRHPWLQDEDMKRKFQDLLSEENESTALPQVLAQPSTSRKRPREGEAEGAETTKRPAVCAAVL
UniProt P41240: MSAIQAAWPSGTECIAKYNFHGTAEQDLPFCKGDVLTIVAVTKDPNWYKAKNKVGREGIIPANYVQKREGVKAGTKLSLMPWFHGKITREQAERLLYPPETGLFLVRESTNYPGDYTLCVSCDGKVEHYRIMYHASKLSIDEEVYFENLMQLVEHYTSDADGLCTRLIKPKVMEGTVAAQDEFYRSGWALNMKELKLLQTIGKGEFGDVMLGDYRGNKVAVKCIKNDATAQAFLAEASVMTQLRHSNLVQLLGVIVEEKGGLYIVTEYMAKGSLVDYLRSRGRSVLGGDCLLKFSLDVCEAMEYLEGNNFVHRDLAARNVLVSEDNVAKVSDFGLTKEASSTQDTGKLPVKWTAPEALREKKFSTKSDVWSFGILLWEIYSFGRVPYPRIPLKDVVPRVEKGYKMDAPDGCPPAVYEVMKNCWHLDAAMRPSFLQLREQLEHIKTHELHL
UniProt P48729: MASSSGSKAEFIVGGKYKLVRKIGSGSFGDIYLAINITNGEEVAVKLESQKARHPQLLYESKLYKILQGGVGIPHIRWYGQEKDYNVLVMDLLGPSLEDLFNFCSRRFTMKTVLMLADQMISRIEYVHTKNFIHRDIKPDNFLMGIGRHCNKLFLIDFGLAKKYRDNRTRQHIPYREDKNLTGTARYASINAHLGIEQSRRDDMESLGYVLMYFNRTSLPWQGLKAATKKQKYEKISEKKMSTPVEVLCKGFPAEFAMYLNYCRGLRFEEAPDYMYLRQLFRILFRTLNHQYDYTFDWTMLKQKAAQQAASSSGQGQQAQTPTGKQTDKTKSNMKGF
UniProt P48730: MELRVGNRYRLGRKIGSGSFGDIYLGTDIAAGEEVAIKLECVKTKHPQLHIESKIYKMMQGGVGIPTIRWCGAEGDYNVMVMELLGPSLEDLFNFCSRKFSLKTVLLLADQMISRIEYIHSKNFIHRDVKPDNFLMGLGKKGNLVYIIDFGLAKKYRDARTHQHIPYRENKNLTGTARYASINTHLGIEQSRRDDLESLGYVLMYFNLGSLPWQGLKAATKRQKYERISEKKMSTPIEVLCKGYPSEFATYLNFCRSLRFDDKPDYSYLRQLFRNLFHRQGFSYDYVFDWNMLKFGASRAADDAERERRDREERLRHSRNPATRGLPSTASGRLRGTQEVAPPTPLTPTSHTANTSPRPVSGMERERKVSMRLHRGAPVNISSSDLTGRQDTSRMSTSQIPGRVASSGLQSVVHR
UniProt Q08345: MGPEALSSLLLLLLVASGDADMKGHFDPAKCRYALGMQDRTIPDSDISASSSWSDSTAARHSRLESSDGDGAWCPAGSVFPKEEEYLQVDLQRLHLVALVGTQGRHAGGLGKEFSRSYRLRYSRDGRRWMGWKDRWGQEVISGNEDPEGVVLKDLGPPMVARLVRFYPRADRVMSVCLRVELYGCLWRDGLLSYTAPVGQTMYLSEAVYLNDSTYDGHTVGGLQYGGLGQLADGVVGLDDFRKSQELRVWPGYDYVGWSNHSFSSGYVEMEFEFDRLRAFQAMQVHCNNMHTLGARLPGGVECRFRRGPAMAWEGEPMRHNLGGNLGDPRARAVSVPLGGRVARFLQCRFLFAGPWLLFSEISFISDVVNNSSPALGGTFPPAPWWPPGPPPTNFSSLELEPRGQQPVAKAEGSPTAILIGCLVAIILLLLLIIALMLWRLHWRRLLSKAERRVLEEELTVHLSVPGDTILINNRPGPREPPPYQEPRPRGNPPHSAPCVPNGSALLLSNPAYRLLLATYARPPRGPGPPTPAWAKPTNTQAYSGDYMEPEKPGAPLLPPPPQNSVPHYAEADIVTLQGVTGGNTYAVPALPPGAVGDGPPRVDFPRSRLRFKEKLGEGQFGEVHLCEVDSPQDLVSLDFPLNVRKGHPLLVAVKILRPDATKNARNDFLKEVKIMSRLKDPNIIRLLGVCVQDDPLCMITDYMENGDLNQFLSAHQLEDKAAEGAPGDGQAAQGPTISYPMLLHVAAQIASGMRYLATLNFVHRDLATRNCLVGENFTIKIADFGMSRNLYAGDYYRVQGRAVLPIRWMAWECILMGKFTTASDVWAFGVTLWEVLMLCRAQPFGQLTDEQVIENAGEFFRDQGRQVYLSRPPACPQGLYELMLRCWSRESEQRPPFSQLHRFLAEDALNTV
UniProt Q9Y463, whole entry, looked up: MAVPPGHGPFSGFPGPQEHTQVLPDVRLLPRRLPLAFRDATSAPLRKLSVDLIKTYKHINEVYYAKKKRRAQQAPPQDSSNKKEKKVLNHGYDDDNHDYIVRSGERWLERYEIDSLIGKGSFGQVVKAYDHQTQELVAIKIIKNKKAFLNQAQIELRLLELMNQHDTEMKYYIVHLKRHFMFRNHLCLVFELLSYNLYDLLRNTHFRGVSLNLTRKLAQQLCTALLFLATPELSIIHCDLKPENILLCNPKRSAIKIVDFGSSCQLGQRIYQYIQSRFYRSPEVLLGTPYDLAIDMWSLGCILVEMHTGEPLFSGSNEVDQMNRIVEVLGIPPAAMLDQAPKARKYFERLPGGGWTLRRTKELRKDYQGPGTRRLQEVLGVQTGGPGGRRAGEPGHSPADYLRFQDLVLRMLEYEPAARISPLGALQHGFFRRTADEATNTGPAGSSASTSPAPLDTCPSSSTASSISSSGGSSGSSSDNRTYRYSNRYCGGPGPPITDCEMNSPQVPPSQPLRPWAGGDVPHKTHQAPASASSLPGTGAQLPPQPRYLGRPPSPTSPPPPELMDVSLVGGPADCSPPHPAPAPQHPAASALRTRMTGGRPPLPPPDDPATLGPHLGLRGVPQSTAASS
UniProt Q92630: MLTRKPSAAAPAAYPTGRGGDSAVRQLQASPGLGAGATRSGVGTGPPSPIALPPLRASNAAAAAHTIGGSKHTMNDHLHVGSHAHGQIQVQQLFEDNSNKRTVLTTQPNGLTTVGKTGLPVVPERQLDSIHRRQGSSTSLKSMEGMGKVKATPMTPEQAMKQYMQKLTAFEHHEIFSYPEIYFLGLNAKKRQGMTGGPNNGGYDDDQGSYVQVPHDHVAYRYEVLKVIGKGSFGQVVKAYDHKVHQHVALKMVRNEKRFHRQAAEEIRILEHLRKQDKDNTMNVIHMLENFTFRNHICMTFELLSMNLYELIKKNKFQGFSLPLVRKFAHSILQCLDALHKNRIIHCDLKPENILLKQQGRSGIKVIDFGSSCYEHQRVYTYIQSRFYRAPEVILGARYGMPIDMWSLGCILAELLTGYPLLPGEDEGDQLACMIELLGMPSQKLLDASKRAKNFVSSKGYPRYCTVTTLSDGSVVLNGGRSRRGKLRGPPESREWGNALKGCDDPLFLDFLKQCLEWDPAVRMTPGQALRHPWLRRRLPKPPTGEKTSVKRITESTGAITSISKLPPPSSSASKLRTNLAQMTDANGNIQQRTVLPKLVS
UniProt P29317, whole entry: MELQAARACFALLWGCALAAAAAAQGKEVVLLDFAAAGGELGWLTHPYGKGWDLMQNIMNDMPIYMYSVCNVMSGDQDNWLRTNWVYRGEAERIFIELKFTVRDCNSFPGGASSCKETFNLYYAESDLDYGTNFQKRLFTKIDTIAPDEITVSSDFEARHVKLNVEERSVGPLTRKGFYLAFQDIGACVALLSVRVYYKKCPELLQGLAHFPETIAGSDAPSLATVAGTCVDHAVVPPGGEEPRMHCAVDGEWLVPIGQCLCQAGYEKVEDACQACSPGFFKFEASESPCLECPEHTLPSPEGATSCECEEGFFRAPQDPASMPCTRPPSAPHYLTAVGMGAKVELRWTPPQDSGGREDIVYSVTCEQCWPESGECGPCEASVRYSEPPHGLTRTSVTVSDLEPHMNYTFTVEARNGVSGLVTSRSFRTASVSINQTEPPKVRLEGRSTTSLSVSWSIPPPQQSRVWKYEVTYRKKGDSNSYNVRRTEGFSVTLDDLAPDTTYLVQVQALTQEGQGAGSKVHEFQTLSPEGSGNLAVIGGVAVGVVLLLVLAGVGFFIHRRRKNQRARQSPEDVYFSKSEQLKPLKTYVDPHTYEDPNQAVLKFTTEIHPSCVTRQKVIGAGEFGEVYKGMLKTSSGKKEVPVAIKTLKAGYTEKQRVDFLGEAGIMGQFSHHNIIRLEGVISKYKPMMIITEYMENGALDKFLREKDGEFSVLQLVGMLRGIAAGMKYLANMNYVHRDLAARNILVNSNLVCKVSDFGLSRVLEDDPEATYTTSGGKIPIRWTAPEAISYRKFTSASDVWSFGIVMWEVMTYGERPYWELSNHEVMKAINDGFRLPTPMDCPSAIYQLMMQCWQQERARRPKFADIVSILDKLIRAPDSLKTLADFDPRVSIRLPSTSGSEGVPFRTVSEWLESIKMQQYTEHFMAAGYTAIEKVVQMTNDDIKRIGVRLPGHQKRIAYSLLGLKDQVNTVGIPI
UniProt P21860, whole entry: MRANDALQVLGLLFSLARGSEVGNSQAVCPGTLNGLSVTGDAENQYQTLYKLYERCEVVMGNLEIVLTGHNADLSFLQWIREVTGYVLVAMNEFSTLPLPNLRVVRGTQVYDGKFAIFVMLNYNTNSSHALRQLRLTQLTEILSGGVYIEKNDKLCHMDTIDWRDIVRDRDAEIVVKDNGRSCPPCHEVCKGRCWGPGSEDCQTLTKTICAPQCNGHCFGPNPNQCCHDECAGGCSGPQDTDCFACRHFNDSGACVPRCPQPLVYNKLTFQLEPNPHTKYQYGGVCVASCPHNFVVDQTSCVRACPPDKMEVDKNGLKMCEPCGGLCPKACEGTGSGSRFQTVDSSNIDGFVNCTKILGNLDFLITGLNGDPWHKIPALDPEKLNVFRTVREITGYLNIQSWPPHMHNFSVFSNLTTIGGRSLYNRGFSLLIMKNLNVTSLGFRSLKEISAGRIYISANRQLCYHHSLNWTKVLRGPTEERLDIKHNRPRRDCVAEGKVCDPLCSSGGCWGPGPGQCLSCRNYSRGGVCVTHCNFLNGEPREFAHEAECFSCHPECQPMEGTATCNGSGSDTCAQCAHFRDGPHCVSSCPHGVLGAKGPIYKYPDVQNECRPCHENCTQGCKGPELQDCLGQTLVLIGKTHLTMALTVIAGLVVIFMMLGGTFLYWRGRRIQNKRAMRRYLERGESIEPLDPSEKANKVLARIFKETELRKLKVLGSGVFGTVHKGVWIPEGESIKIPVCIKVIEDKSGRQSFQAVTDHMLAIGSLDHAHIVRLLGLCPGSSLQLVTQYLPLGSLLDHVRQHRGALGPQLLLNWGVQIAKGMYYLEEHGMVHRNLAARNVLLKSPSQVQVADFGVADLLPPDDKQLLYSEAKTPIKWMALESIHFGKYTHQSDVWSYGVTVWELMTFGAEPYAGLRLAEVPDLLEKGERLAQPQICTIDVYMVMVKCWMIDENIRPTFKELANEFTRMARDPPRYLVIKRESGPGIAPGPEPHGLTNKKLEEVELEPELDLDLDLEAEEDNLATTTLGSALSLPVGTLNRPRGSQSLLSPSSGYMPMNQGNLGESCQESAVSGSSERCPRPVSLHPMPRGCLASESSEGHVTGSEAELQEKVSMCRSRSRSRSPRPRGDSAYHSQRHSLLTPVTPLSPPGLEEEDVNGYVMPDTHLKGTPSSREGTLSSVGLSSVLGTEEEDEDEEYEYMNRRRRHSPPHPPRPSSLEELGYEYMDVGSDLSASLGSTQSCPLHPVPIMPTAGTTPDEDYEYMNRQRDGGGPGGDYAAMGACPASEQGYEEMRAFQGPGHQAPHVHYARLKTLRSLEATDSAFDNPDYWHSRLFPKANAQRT

Measured: kinase-Nluc reporter destabilization hit call

COC1(C(=O)N[C@@H](C)c2ccc(-n3cc(F)cn3)nc2)CCC(c2nc(C)cc(Nc3cc(C)[nH]n3)n2)CC1 (stereo partly drawn) [trans-Pralsetinib] (2.5 µM)
inactive: [1] 0 | [2] 0 | [3] 0 | [4] 0 | [5] 0 | [6] 0 | [7] 0 | [8] 0 | [9] 0 | [10] 0 | [11] 0 | [12] 0 | [13] 0 | [14] 0 | [15] 0 | [16] 0 | [17] 0 | [18] 0 | [19] 0 | [20] 0

O=C1NC(=O)/C(=C/c2ccc(-c3ccc(F)cc3O)o2)S1 (10 µM)
inactive: [1] 0 | [2] 0 | [3] 0 | [4] 0 | [5] 0 | [6] 0 | [7] 0 | [8] 0 | [9] 0 | [10] 0 | [11] 0 | [12] 0 | [13] 0 | [14] 0 | [15] 0 | [16] 0 | [17] 0 | [18] 0 | [19] 0 | [20] 0

Cc1ccc(-c2nn(C(C)(C)CNC(=O)c3ccncc3)c3ncnc(N)c23)cc1 (2.5 µM)
inactive: [1] 0 | [2] 0 | [3] 0 | [4] 0 | [5] 0 | [6] 0 | [7] 0 | [8] 0 | [9] 0 | [10] 0 | [11] 0 | [12] 0 | [13] 0 | [14] 0 | [15] 0 | [16] 0 | [17] 0 | [18] 0 | [19] 0 | [20] 0

Cc1cccc(-c2[nH]ncc2-c2ccc3ncccc3n2)n1 (10 µM)
inactive: [1] 0 | [2] 0 | [3] 0 | [4] 0 | [5] 0 | [6] 0 | [7] 0 | [8] 0 | [9] 0 | [10] 0 | [11] 0 | [12] 0 | [13] 0 | [14] 0 | [15] 0 | [16] 0 | [17] 0 | [18] 0 | [19] 0 | [20] 0

c1ccc(-c2nn3c(c2-c2ccnc4cc(OCCN5CCOCC5)ccc24)CCC3)nc1 (10 µM)
inactive: [1] 0 | [2] 0 | [3] 0 | [4] 0 | [5] 0 | [6] 0 | [7] 0 | [8] 0 | [9] 0 | [10] 0 | [11] 0 | [12] 0 | [13] 0 | [14] 0 | [15] 0 | [16] 0 | [17] 0 | [18] 0 | [19] 0 | [20] 0

Cc1cc2ncc(-c3ccccc3)nc2cc1C (10 µM)
inactive: [1] 0 | [2] 0 | [3] 0 | [4] 0 | [5] 0 | [6] 0 | [7] 0 | [8] 0 | [9] 0 | [10] 0 | [11] 0 | [12] 0 | [13] 0 | [14] 0 | [15] 0 | [16] 0 | [17] 0 | [18] 0 | [19] 0 | [20] 0

O=C(CCCCCn1cc(Nc2ncc(Cl)c(Nc3ccc(Cl)cc3)n2)cn1)NO (2.5 µM)
inactive: [1] 0 | [2] 0 | [3] 0 | [4] 0 | [5] 0 | [6] 0 | [7] 0 | [8] 0 | [9] 0 | [10] 0 | [11] 0 | [12] 0 | [13] 0 | [14] 0 | [15] 0 | [16] 0 | [17] 0 | [18] 0 | [19] 0 | [20] 0

COc1ccc2c(=O)c(-c3ccccc3)coc2c1 [7-Methoxyisoflavone] (10 µM)
inactive: [1] 0 | [2] 0 | [3] 0 | [4] 0 | [5] 0 | [6] 0 | [7] 0 | [8] 0 | [9] 0 | [10] 0 | [11] 0 | [12] 0 | [13] 0 | [14] 0 | [15] 0 | [16] 0 | [17] 0 | [18] 0 | [19] 0 | [20] 0

CC(C)n1cnc2c(Nc3cccc(Cl)c3)nc(NCCO)nc21 (10 µM)
inactive: [1] 0 | [2] 0 | [3] 0 | [4] 0 | [5] 0 | [6] 0 | [7] 0 | [8] 0 | [9] 0 | [10] 0 | [11] 0 | [12] 0 | [13] 0 | [14] 0 | [15] 0 | [16] 0 | [17] 0 | [18] 0 | [19] 0 | [20] 0

Cc1cc(Nc2cc(CN3CCOCC3)c3nc(C)c(Cc4ccc(Cl)cc4F)n3n2)n[nH]1 [Gandotinib] (2.5 µM)
inactive: [1] 0 | [2] 0 | [3] 0 | [4] 0 | [5] 0 | [6] 0 | [7] 0 | [8] 0 | [9] 0 | [10] 0 | [11] 0 | [12] 0 | [13] 0 | [14] 0 | [15] 0 | [16] 0 | [17] 0 | [18] 0 | [19] 0 | [20] 0

CCOc1nc(Nc2ccc(C(=O)N3CCOCC3)cc2OC)nc2[nH]ccc12 [LRRK2 inhibitor 1] (2.5 µM)
inactive: [1] 0 | [2] 0 | [3] 0 | [4] 0 | [5] 0 | [6] 0 | [7] 0 | [8] 0 | [9] 0 | [10] 0 | [11] 0 | [12] 0 | [13] 0 | [14] 0 | [15] 0 | [16] 0 | [17] 0 | [18] 0 | [19] 0 | [20] 0

CCOc1c([C@H](C)n2nc(C)c3c(N)ncnc32)cc(Cl)c(F)c1[C@@H]1CNC(=O)C1 [Parsaclisib (hydrochloride)] (10 µM)
inactive: [1] 0 | [2] 0 | [3] 0 | [4] 0 | [5] 0 | [6] 0 | [7] 0 | [8] 0 | [9] 0 | [10] 0 | [11] 0 | [12] 0 | [13] 0 | [14] 0 | [15] 0 | [16] 0 | [17] 0 | [18] 0 | [19] 0 | [20] 0

Arranged by length of the SMILES (high to low): part of the list above.
CCOc1c([C@H](C)n2nc(C)c3c(N)ncnc32)cc(Cl)c(F)c1[C@@H]1CNC(=O)C1 [Parsaclisib (hydrochloride)] (10 µM)
inactive: [1] 0 | [2] 0 | [3] 0 | [4] 0 | [5] 0 | [6] 0 | [7] 0 | [8] 0 | [9] 0 | [10] 0 | [11] 0 | [12] 0 | [13] 0 | [14] 0 | [15] 0 | [16] 0 | [17] 0 | [18] 0 | [19] 0 | [20] 0

Cc1cc(Nc2cc(CN3CCOCC3)c3nc(C)c(Cc4ccc(Cl)cc4F)n3n2)n[nH]1 [Gandotinib] (2.5 µM)
inactive: [1] 0 | [2] 0 | [3] 0 | [4] 0 | [5] 0 | [6] 0 | [7] 0 | [8] 0 | [9] 0 | [10] 0 | [11] 0 | [12] 0 | [13] 0 | [14] 0 | [15] 0 | [16] 0 | [17] 0 | [18] 0 | [19] 0 | [20] 0

CC(C)n1cnc2c(Nc3cccc(Cl)c3)nc(NCCO)nc21 (10 µM)
inactive: [1] 0 | [2] 0 | [3] 0 | [4] 0 | [5] 0 | [6] 0 | [7] 0 | [8] 0 | [9] 0 | [10] 0 | [11] 0 | [12] 0 | [13] 0 | [14] 0 | [15] 0 | [16] 0 | [17] 0 | [18] 0 | [19] 0 | [20] 0

Next part:

CCN1C(=O)CNc2ncc(-c3ccc(-c4nc[nH]n4)nc3C)nc21 [CC-115 (hydrochloride)] (2.5 µM)
inactive: [2] 0 | [3] 0 | [4] 0 | [5] 0 | [6] 0 | [7] 0 | [8] 0 | [9] 0 | [10] 0 | [11] 0 | [12] 0 | [13] 0 | [14] 0 | [15] 0 | [16] 0 | [17] 0 | [18] 0 | [19] 0 | [20] 0
active: [1] 1

COc1c(C)c(C(=O)c2ccc(N)c(C(=O)O)c2)n2ccccc12 (10 µM)
inactive: [1] 0 | [2] 0 | [3] 0 | [4] 0 | [5] 0 | [6] 0 | [7] 0 | [8] 0 | [9] 0 | [10] 0 | [11] 0 | [12] 0 | [13] 0 | [14] 0 | [15] 0 | [16] 0 | [17] 0 | [18] 0 | [19] 0 | [20] 0

COc1ccc2c(c1OC)OC1c3ccc(O)cc3OCC21 (stereo not given) [Methylnissolin] (10 µM)
inactive: [1] 0 | [2] 0 | [3] 0 | [4] 0 | [5] 0 | [6] 0 | [7] 0 | [8] 0 | [9] 0 | [10] 0 | [11] 0 | [12] 0 | [13] 0 | [14] 0 | [15] 0 | [16] 0 | [17] 0 | [18] 0 | [19] 0 | [20] 0

N#C/C(=C(/N)Sc1ccc(N)cc1)c1ccccc1C(F)(F)F (10 µM)
inactive: [1] 0 | [2] 0 | [3] 0 | [4] 0 | [5] 0 | [6] 0 | [7] 0 | [8] 0 | [9] 0 | [10] 0 | [11] 0 | [12] 0 | [13] 0 | [14] 0 | [15] 0 | [16] 0 | [17] 0 | [18] 0 | [19] 0 | [20] 0

COc1nc(-c2ccnc(NC(=O)C3CC3)c2)sc1C(N)=O [GSK-3β inhibitor 2] (10 µM)
inactive: [1] 0 | [2] 0 | [3] 0 | [4] 0 | [5] 0 | [6] 0 | [7] 0 | [8] 0 | [9] 0 | [10] 0 | [11] 0 | [12] 0 | [13] 0 | [14] 0 | [15] 0 | [16] 0 | [17] 0 | [18] 0 | [19] 0 | [20] 0

CC(CCc1ccccn1)(CCc1ccccn1)C(=O)c1ccccc1 (10 µM)
inactive: [1] 0 | [2] 0 | [3] 0 | [4] 0 | [5] 0 | [6] 0 | [7] 0 | [8] 0 | [9] 0 | [10] 0 | [11] 0 | [12] 0 | [13] 0 | [14] 0 | [15] 0 | [16] 0 | [17] 0 | [18] 0 | [19] 0 | [20] 0

— the supplement of paper PMC12823440, “Inhibitors supercharge kinase turnover through native proteolytic circuits” (Nature, 2025)
